In publication PMC10367554 one finds binding data, which are given here for 1 substance.

Protein sequences, listed by entry. Tags and fused reporters are not part of them.
UniProt Q04695: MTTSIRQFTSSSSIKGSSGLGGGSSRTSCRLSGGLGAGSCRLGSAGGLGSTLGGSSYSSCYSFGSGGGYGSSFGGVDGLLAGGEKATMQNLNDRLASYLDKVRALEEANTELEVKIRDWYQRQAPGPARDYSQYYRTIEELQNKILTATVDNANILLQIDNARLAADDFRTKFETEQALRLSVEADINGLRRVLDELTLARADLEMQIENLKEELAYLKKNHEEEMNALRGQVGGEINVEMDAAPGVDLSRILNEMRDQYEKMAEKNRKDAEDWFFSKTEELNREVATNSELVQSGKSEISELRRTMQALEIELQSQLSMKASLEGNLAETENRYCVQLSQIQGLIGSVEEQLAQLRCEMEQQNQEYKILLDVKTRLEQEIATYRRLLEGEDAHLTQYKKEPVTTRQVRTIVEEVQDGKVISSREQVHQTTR
UniProt P06733: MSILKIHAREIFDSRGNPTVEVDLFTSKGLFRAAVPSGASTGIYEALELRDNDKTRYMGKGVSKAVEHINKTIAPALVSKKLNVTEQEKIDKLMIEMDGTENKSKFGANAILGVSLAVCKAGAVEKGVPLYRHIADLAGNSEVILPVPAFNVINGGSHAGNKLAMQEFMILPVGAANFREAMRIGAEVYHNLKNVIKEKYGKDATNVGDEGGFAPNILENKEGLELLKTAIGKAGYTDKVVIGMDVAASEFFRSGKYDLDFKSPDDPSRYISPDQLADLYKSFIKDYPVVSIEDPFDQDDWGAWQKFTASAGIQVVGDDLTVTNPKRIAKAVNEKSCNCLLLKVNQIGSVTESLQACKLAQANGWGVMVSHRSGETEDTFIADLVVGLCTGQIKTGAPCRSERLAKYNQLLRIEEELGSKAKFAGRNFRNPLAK

The test addresses Keratin 17, overexpressed in K17-overexpressing KCs (UniProt Q04695). The test is described as follows: affinity purification with mass spectrometry; Co-IP combined with mass spectrometry in K17-overexpressing KCs.

No constants are given. Whether binding was seen depends on the method and setting. Binding seen in cells or lysates may run through a third protein. Here binding means that the protein was enriched with, or labelled near, the bait; the list need not be complete.

In the case of “α-enolase (from UniProt P06733 1-434) (enzyme)”, the binding result was “binds”.
